Experimental findings from PubChem BioAssay AID493014 (National Center for Advancing Translational Sciences (NCATS), 2011) are described below.

One may read the AC50 as the concentration giving half of the maximal activity seen.

This assay can be described thus: qHTS Assay to Find Inhibitors of Chronic Active B-Cell Receptor Signaling. The conditions noted are these: ABC-DLBCL IkBa-CBG/CBR reporter, luminescence ratio (green luciferase fused to IkBa over red control in TMD8 lymphoma cells), 4 h. The method, boiled down: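 TMD8 ABC-DLBCL cells carrying doxycycline-inducible green luciferase fused to IkappaBalpha plus unfused red luciferase were exposed to compounds (up to 46 uM) for 4 hrs at 37C. Activity came from the overlap-corrected green/red luminescence ratio.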
(In general: Quantitative high-throughput screening tests each substance at several concentrations.)

[1] abbreviates: measured here: CBR red luminescence, cell number.

The structures appear in SMILES notation. Some of the results follow. The main result of the screen is listed elsewhere. These columns were measured beside it and carry no call. Most of these compounds were active or inconclusive in the main read-out, so they are no random draw. Potencies come from curve fits of mixed quality, noted in brackets.

In the case of `CCc1ccc(CNCCc2c[nH]c3ccccc23)cc1`, the AC50 under setting [1] is 35.5 µM [falling, single point].

`COc1ccc(OC)c(CN2CCN(C(=O)COc3cccc(C)c3)CC2)c1`: the AC50 under setting [1] is 4.47 µM [rising, full curve, poor fit].

On to `COc1ccc2c(c1)CC1(CN2C)C(=O)NC(=O)N(c2ccc(C)cc2)C1=O` (stereo not given), for which, under setting [1], the AC50 is 23.1 µM [falling, single point].

`O=[N+]([O-])c1ccc(N2CCCCCC2)c2ncccc12`: the AC50 under setting [1] is 15.8 µM [rising, single point].

As to `Cn1cccc1/C=C1\C(=O)NC(=O)N(Cc2ccccc2)C1=O`, the AC50 under setting [1] is 35.5 µM [rising, single point].

Consider `COc1ccc(NP(=O)(Oc2ccc(Cl)cc2)Oc2ccc(Cl)cc2)cc1OC`, for which the AC50 by setting is: under setting [1], 29.1 µM [falling, single point]; (measured here: IkBa-CBG green luminescence) 32.6 µM [rising, partial curve, poor fit].

For the compound `Cc1ccc(N)c(C(=O)c2ccc(Br)cc2)c1`, under setting [1], the AC50 is 35.5 µM [rising, single point].

`O=c1cc(CN2CCNCC2)nc2sccn12`: under setting [1], the AC50 was 15.8 µM [rising, single point].

As to `O=C(c1cccc(C(F)(F)F)c1)C1CCCN(Cc2ccccc2O)C1` (stereo not given), under setting [1], the AC50 is 0.501 µM [rising, full curve, poor fit].

Consider `O=C(N/N=C/c1c(O)n(Cc2ccccc2)c(=O)[nH]c1=O)c1ccccc1`, for which, under setting [1], the AC50 was 3.26 µM [falling, full curve].

With `CCN(CC)C(=O)c1ccc(NC(=O)Cn2nc(C)c3ccccc3c2=O)cc1`, the AC50 under setting [1] is 2.31 µM [rising, full curve].

Take `O=C(Nc1ccc(Cl)cc1)OC1CN2CCC1CC2` (stereo not given): the concentration at half-maximal activity (AC50) under setting [1] was 3.98 µM [rising, single point].

With `O=c1c2ccccc2nc(-c2cccs2)n1-c1ccccc1`, the AC50 under setting [1] is 2.24 µM [rising, full curve].

In the case of `Cc1cc(C=O)c(C)n1CC1CCCO1` (stereo not given), the AC50 under setting [1] is 29.1 µM [rising, single point].

Turning to `CC(=O)c1cn(Cc2ccccc2F)c2ccccc12`, under setting [1], the AC50 is 14.1 µM [rising, single point].

In the case of `O=CC(Cl)P(=O)(N1CCCCC1)N1CCCCC1` (stereo not given), the concentration at half-maximal activity (AC50) under setting [1] is 20 µM [rising, single point].

In the case of `Cc1cc2cc(OCc3ccccc3)ccc2n1C`, under setting [1], the AC50 is 2 µM [rising, partial curve, poor fit].

Turning to `CC(C)C[C@H]1C(=O)N2CCCC2[C@]2(O)O[C@](NC(=O)[C@@H]3C=C4c5cccc6[nH]cc(c56)CC4N(C)C3)(C(C)C)C(=O)N12` (stereo not given in full), the AC50 under setting [1] was 3.26 µM [falling, partial curve, poor fit].

As to `COC1CCCCC1NCCc1ccccc1` (stereo not given), the half-maximal activity concentration (AC50) under setting [1] was 35.5 µM [falling, single point].
